Assay results as given in the supplement of paper PMC6445147.
This is a noisy data set.

B1: human tRNA-Pro; a variant is named by its letters at N, in order (parent)
chain: GGCTCGTTGGTCTAGNGGTATGATTCTCGCTTAGGGTGCGAGAGGTCCCGGGTTCNNATCCCGGACGAGCCC

Variants of: B1
Assay: tRNA 3' processing efficiency (processed reads / all reads, maximum-likelihood estimate) (fraction); higher = more efficient 3' processing
Details: HEK293T; construct: no Pol-II promoter ((-)CMV library)

| Variant | tRNA 3' processing efficiency |
| --- | --- |
| TAC A14T T19A A20C | 0.25 |
| GAG C70T | 0.62 |
| AAG G17A G18C | 0.4 |
| GAC A14G G18T T19A | 0.2 |
| CCA G9T T19A | 0.17 |
| TAT G50C T59C | 0.43 |
| GAC G9A T19A A58T | 0.4 |
| GAC T8C T19G | 0.5 |
| TCA A20G A58C | 0.2 |
| TAG A14T A20T | 0.25 |
| GAT A14T G15A T19A A58G | 0.25 |
| TAG G18T A20C | 0.5 |
| CAG G9A T19A T53A A58T | 0.25 |
| GAG T8C T19A A58G | 0.18 |
| AAT G9T G15A | 0.57 |
| GCA T8C A14C T53A | 0.2 |
| CAT T19G A58T | 0.4 |
| CCA A20T A58G | 0.4 |
| GAG A14C G17C G18A | 0.25 |
| CAG T19A T59C | 0.62 |
| GAT G9A T19C T59G | 0.25 |
| CAT T8G A14C T59A | 0.5 |
| CAC A14C T59C | 0.4 |
| CAC A14G T19G | 0.4 |

A second format for some results above.
Variant	tRNA 3' processing efficiency
CAT T19G A58T	0.4
CCA A20T A58G	0.4
GAG A14C G17C G18A	0.25
CAG T19A T59C	0.62

The results go on:

| Variant | tRNA 3' processing efficiency |
| --- | --- |
| TAC T53A T59G | 0.25 |
| AAG A14G T19A | 0.56 |
| GAC T24C | 0.25 |
| GCA G9T G15C T19C | 0.25 |
| CAC T8G A58G T59G | 0.4 |
| CAG A14C G15T T19C A20T | 0.25 |
| GAG T19G T46C A58T | 0.4 |
| GAC T46C A58T | 0.25 |
| GAT A14G G15T G18C | 0.82 |
| TAT A20G A58G | 0.2 |
| GAT G17C G18C T19G A20T | 0.62 |
| GAC A20G A58G | 0.15 |
| GAC A14G G15C A58G T59G | 0.33 |
| GAC T8C T59C | 0.15 |
| AAT A14G G17T G18T | 0.29 |
| GAC A20G T53A T59G | 0.25 |
| GAT G45T T59C | 0.2 |
| GAG G2A C5A A20T | 0.62 |
| CAC A14T A58C | 0.14 |
| GCA T19A G51C | 0.25 |
| AAG T8G G18C | 0.25 |
| TCA A14C T19A | 0.25 |
| TCA A20T T53A | 0.4 |
| AAT G17C A20T | 0.4 |

| Variant | tRNA 3' processing efficiency |
| --- | --- |
| GAC A58G T59G C62T | 0.4 |
| GAG A20C C55T C61T | 0.25 |
| AAC A14G T19G | 0.38 |
| TCA A14G A58C | 0.25 |
| GCA G9T T19A A20T | 0.4 |
| GCA G15C G51A | 0.29 |
| GAG T19A T53A | 0.2 |
| GCA T8G A14T G17T G18T T19G A20T | 0.17 |
| TCA A58G T59A | 0.75 |
| CAT A14T A58G T59A | 0.5 |
| GAG T53A T59C C61T | 0.4 |
| GAG A14G G15C G17C G18A A20T A58T | 0.2 |
| AAG A14G A20G | 0.1 |
| GAT A14C T59A | 0.33 |
| GCA G2C C3T C5A | 0.25 |
| GAG A14T T19A A58G T59A | 0.03 |
| AAT G9A T19A | 0.25 |
| CAT A14T G17A T19C A20T | 0.57 |
| AAC A14G A58C | 0.09 |
| AAC T8C A20G | 0.25 |
| AAG A14G C55G A58T | 0.17 |
| GCA G15T G17T T19A T59C | 0.33 |
| GAC G17A G18A T19C A33G | 0.5 |
| CAC G15T A58T | 0.29 |

| Variant | tRNA 3' processing efficiency |
| --- | --- |
| GAC A14G G17T T59A | 0.25 |
| CCA T19C | 0.2 |
| CCA A14G A20G | 0.4 |
| AAT T19A A20C A58T | 0.33 |
| GCA A14T T19G A58G T59G | 0.25 |
| GAG T8A G18C T19G A20C | 0.25 |
| TCA T19A A58C | 0.25 |
| CAT T19A A20T A58G | 0.17 |
| GAG G15A G17T A58T | 0.4 |
| GAC T8C A20G T59C | 0.2 |
| GCA A14C T19A A20T | 0.17 |
| GAG T8C A33T | 0.2 |
| GCA A23T C55G | 0.62 |
| GAC T8A G15T G17A G18C A58T | 0.2 |
| GAT A14G T19A A20T A23T | 0.25 |
| GAT T19A A20C A58T | 0.4 |
| CAC A20G T59G | 0.25 |
| GAG T11A T19G | 0.67 |
| CAC G18C A58T | 0.43 |
| GAC T8A A14G A20G | 0.25 |
| CAT A58T T59A | 0.55 |
| GAG T8G A14C G34T A58T T59A | 0.14 |
| AAG G29A | 0.25 |
| GAT A14G G17A T19G | 0.4 |

In a second layout: results already given.
TAC T53A T59G
  tRNA 3' processing efficiency = 0.25
TCA A20T T53A
  tRNA 3' processing efficiency = 0.4
GCA G15T G17T T19A T59C
  tRNA 3' processing efficiency = 0.33

Following part

| Variant | tRNA 3' processing efficiency |
| --- | --- |
| AAC T19G A20T T59G | 0.4 |
| GCA T8C G17T T19G | 0.62 |
| CAG G15C G17C | 0.43 |
| ACA A14G T19G A58G | 0.43 |
| TAC A14C G15T A20T | 0.25 |
| GAC A14G G18A A20G A58G | 0.33 |
| AAG T8C A14G A20G | 0.23 |
| AAG G9C T19A A20T | 0.4 |
| GAG A14T G15T G17C G18A A58T C70T | 0.7 |
| AAT G15C A58T | 0.33 |
| GCA T19A G36A A58T | 0.5 |
| GAG A14G G15A T19A A58G | 0.17 |
| CAG A20G T53G | 0.4 |
| CAG A14G G51A | 0.08 |
| GAT G9T G38A | 0.4 |
| GAC A14G A20T A58T | 0.56 |
| CAT A20T A58G | 0.15 |
| GAG G9A G15T G18T | 0.25 |
| CCA T8C G15T T19G | 0.25 |
| CCA T8C G38A A58G | 0.25 |
| CAG A58T T59G | 0.33 |
| GAT A14G G17T T19C | 0.25 |
| GAG A14G G17T A20T | 0.2 |
| GAT G9T A14G G15T | 0.17 |

| Variant | tRNA 3' processing efficiency |
| --- | --- |
| GCA T8G G9A G17A T59A | 0.25 |
| ACA A14T A20T A58T | 0.5 |
| AAT T8G G9T | 0.55 |
| TAG G15C T59G | 0.5 |
| TAG A14G A20T | 0.14 |
| GAT A14C A58G T59A | 0.2 |
| CAT T19A A58C | 0.43 |
| GAG A14G G17T A20T A58G T59C | 0.2 |
| GAG T8G G17T T19G A58T | 0.3 |
| GAC T7C G17C | 0.25 |
| GAG A14T G18A T19C | 0.4 |
| TAG T19A T54A T59C | 0.25 |
| GAG A20T A58G T59G | 0.4 |
| CAT T19C T59G | 0.33 |
| CAC T8C T19G A58T T59C | 0.33 |
| TCA A14G G17T T59G | 0.2 |
| TAG T19A A58G T59G | 0.4 |
| GCA G9C G50T | 0.25 |
| CCA A14C G51A | 0.15 |
| GAT G9T T19A A20T A58T | 0.22 |
| CCA A58C | 0.25 |
| TCA G15T G22A T59G | 0.25 |
| AAT T19C T59A | 0.25 |
| GAG A14C T19A C55G | 0.14 |

| Variant | tRNA 3' processing efficiency |
| --- | --- |
| CAT G15A A58G | 0.29 |
| GAC T8A G17C A58T | 0.43 |
| TAG G9A A20T T59G | 0.5 |
| ACA G9T T19G A58T T59C | 0.43 |
| AAT G9A G18T T19G | 0.58 |
| GAT A14G G15A G18A | 0.25 |
| TAC A58T T59A | 0.33 |
| TAT T8C T19A C55T | 0.4 |
| GAT G15A G17C T19C | 0.4 |
| CAG A14T G17T | 0.81 |
| CAG A14G T19A | 0.79 |
| GAG C49T | 0.62 |
| GAG G17A T19C T53A A58G T59A | 0.67 |
| AAC G17T A58G | 0.73 |
| CAG T19C | 0.06 |
| CAT A14T T59G | 0.5 |
| GAC A14C T19A A20C A58G T59C | 0.25 |
| GAT T8C G10C | 0.4 |
| CAG G15C A58G | 0.08 |
| GAG G15C T19C T53A | 0.43 |
| GAG T19A A20T A58G T59A | 0.2 |
| TAG T8G G15A A58G | 0.2 |

A few values from the list.
TAG G9A A20T T59G | tRNA 3' processing efficiency: 0.5
CAG T19C | tRNA 3' processing efficiency: 0.06

Variants of: B1
Assay: tRNA 5' processing efficiency (processed reads / all reads, maximum-likelihood estimate) (fraction); higher = more efficient 5' processing
Details: HEK293T; construct: CMV Pol-II promoter ((+)CMV library, decapped)

| Variant | tRNA 5' processing efficiency |
| --- | --- |
| AAT T19A A20C A58T | 0.2 |
| CCA A58C | 0.25 |
